Source: patent US20220125770A1, “COMBINATION THERAPY OF ALK-POSITIVE NEOPLASIA” (Academisch Medisch Centrum, priority 2019, published 2022)
At least one structure is not confirmed: it was looked up by name or label, or the drawing left a doubt.

Key:
SH-SY5Y xenografts = assay: SH-SY5Y xenograft tumour growth; type: in vivo, NMRI-Foxn1nu/nu mice
Method: For tumour growth assays, 5×10^6 SH-SY5Y cells were suspended in 200 μl of a 50% Matrigel (BD, 354234) solution in PBS and subcutaneously injected in NMRI-Foxn1nu/nu mice (NKI; Janvier). After tumour outgrowth to around 200-250 mm^3, mice were randomized to control or treatment groups. The control group received 150 μl PBS daily intraperitoneally (I.P.) for 4 weeks (day 1-day 28). The TRAIL group received 150 μg/day through I.P. for 4 weeks (day 1-day 28). The Lorlatinib group received 5 mg/kg twice a day through oral gavage for 6 weeks (day 1-day 42) and 4 weeks (day 29-day 56) of PBS (150 μl/day I.P.). The combination group received Lorlatinib twice a day for 6 weeks (day 1-day 42) and 4 weeks TRAIL (day 29-day 56). Tumour size was measured three times a week. Mice were sacrificed at the humane endpoint (tumor size >1500 mm^3), the tumours were isolated and divided in two parts. One tumour piece was fresh frozen in liquid nitrogen and RNA was isolated using Trizol reagent. The other tumour piece was fixed in 4% (w/v) buffered formaldehyde (Klinipath) and embedded in paraffin for histological analyses. In vivo experiments were conducted at the NKI therapeutical intervention unit after ethical approval from the animal experiments committee of the NKI was obtained (AvD:30100 2015 407 appendix 1; WP8156).

[1] = tested on: MES-type neuroblastoma cells; assay: Cell viability (MTT) assay, MES-type cells of isogenic cell line pairs; type: cell-based, human; conditions: two isogenic cell line pairs with ALK mutations, 120 hours
Method: […] Seeding densities were optimized for each cell line so that the control, non-treated cells would reach 70-80% confluence by the end of the experiment. […] Metabolic activity was measured by 3-(4,5-dimethylthiazol-2-yl)-2,5-diphenyltetrazolium bromide (MTT) assay, according to the manufacturer's instructions with minor modifications. Sextuple or triplicate measurements were used for each experimental condition. Two-sided t-tests assuming equal variance were used to determine significance. Experiments were repeated at least twice.

[2] = tested on: mixed culture of SH-SY5Y-GFP (ADRN-type) and SH-EP2-RFP (MES-type) cells; assay: Flow cytometry of mixed cultures of SH-EP2-RFP and SH-SY5Y-GFP cells; type: cell-based, human; conditions: Lorlatinib 5 μM or TRAIL 100 ng/ml, 120 hours, relative to DMSO control
Method: GFP and RFP labelled cells were plated at given densities (see Figure description), collected by trypsin treatment, washed twice with FACS buffer and analysed using flow cytometer (BD biosciences) and BD Accuri C6 software.

[3] = tested on: ADRN-type neuroblastoma cells; assay: Cell viability (MTT) assay, ADRN-type cells of isogenic cell line pairs; type: cell-based, human; conditions: two isogenic cell line pairs with ALK mutations, 120 hours
Method: Cells were plated in 96-well plates, one day before the addition of Lorlatinib (HY-12215, MedChemExpress) and/or TRAIL (Peprotech) to the culture medium. Seeding densities were optimized for each cell line so that the control, non-treated cells would reach 70-80% confluence by the end of the experiment. […] Metabolic activity was measured by 3-(4,5-dimethylthiazol-2-yl)-2,5-diphenyltetrazolium bromide (MTT) assay, according to the manufacturer's instructions with minor modifications. Sextuple or triplicate measurements were used for each experimental condition. Two-sided t-tests assuming equal variance were used to determine significance. Experiments were repeated at least twice.

SH-SY5Y-NOTCH3-IC cells = assay: Cell viability assay, SH-SY5Y-NOTCH3-IC cells with or without dox-induced NOTCH3-IC; type: cell-based, human

Compound: C[C@H]1Oc2cc(cnc2N)-c2c(nn(C)c2C#N)CN(C)C(=O)c2ccc(F)cc21 [Lorlatinib]
- Tumour growth response during treatment (SH-SY5Y xenografts; TRAIL 150 μg/day I.P. 4 weeks, Lorlatinib 5 mg/kg twice a day oral 6 weeks, or both): rapid regression
- Fraction of tumours/mice that relapsed (SH-SY5Y xenografts; after cessation of treatment): about half
- Sensitivity to Lorlatinib (cell viability) [1]: resistant and continued to proliferate
- Effect on ADRN population (SH-SY5Y-GFP) [2]: reduced
- Sensitivity to Lorlatinib (cell viability) [3]: highly sensitive
- Sensitivity to Lorlatinib (SH-SY5Y-NOTCH3-IC cells; dox-induced NOTCH3-IC, reprogrammed to the MES phenotype): resistant
- Sensitivity to Lorlatinib (SH-SY5Y-NOTCH3-IC cells; without doxycycline treatment): sensitive
